Assay results reported in publication PMC7819943, “Rice protein-binding microarrays: a tool to detect cis-acting elements near promoter regions in rice”.
The list shows a part of the results.

Target: T1, OsSMF1 (Oryza sativa, UniProt Q6ZLB0 1-436)
T1 sequence: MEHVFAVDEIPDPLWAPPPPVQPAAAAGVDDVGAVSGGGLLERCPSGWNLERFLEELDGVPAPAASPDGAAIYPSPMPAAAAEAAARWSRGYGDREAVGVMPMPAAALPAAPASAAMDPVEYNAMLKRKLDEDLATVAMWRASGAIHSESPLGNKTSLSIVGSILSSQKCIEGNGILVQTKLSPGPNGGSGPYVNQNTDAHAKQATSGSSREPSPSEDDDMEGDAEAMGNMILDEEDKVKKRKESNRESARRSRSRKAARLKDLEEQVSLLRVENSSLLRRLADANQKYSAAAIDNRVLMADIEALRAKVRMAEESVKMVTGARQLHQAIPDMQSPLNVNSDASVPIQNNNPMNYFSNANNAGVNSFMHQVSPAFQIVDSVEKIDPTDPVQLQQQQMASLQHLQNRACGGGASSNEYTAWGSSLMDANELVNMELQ
Experiment: protein-binding microarray (RPBM); PBS, 2% BSA, 51.3 ng/ul salmon testes DNA, 50 uM zinc acetate, 200 nM TF, 25 C, 1 h; high values mean tight binding
Conditions: protein: recombinant; tags: N-terminal polyhistidine and DsRed monomer fusion (pET32a); chain copies: 2; label: CyDye5-dUTP incorporated in the synthesized complementary strand; 3' TTTTT single-stranded linker to array surface; dsDNA, one strand shown
Procedure, shortened: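 Transcription factors were each fused at the N-terminus to a polyhistidine tag plus DsRed and expressed in E. coli BL21-CodonPlus before Ni–NTA purification. Binding to a double-stranded custom Agilent array was carried out with 200 nM protein at 25 °C for 1 h in PBS, 2% BSA, salmon testes DNA and 50 µM zinc acetate. The binding signal is per-feature fluorescence intensity, in arbitrary units, on an Axon 4000B scanner.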

Row | Sequence | binding signal
1 | TTTATAATTTTCTTATGGTATTTTCTACTAGTATCCGTTGCGGAGTCACCTAGTGCAG | 29400 fluorescence intensity (a.u.)
2 | ATTGGGAGGGAGGTAATACATGGAATTAGGTTTCTTGTGGCGGAGTCACCTAGTGCAG | 3280 fluorescence intensity (a.u.)
3 | CAACGTATTTGTCTTATAAGACAAATCTACACAAACAATTCGGAGTCACCTAGTGCAG | 3630 fluorescence intensity (a.u.)
4 | GGAGGGGTGGAAGGAGGGTGGTAGGAGGAATTAGATGTGTCGGAGTCACCTAGTGCAG | 3230 fluorescence intensity (a.u.)
5 | GTTCCCCTCGTGCCGCCCGCCTCCGCCGTCGCGTCCCCGCCGGAGTCACCTAGTGCAG | 3710 fluorescence intensity (a.u.)
6 | GGTGTCACCTCCTCTATCTTAGTAACTTGGCCAACTCTTCCGGAGTCACCTAGTGCAG | 15700 fluorescence intensity (a.u.)
7 | CACCGCACGTCACCCGCGAAGCTCTCATGGCCTCACACACCGGAGTCACCTAGTGCAG | 4370 fluorescence intensity (a.u.)
8 | TGTGCCTTGTCGCCGTGATTAGCACTTTAAACAAGTGTTCCGGAGTCACCTAGTGCAG | 3160 fluorescence intensity (a.u.)
9 | GAAATTAGAAACACATGGATGATAATGTTCGATCCTTGAACGGAGTCACCTAGTGCAG | 30100 fluorescence intensity (a.u.)
10 | AGAGGGAAAGCACGCTACTGCTACTCGTCACCGCAGCGCACGGAGTCACCTAGTGCAG | 3300 fluorescence intensity (a.u.)
11 | GAGCGAGAGGAGGGATATATACACGTGTTAACAATCCAAGCGGAGTCACCTAGTGCAG | 5780 fluorescence intensity (a.u.)
12 | CTAGCGACGAAAGCGACTCGTCAGAGGGCCACGTGCAGCTCGGAGTCACCTAGTGCAG | 3710 fluorescence intensity (a.u.)
13 | GTTTTCTCTTAGTTTGTCCATCTTTGTCATTTTGCGCTGTCGGAGTCACCTAGTGCAG | 3990 fluorescence intensity (a.u.)
14 | CTCGTTCACTTGGGTGCTAATTAAACATCAAATCTAAGCTCGGAGTCACCTAGTGCAG | 16500 fluorescence intensity (a.u.)
15 | GTCGCCATGACGGAGTCGCGCCGCCCGCCGTCCGGCTGCGCGGAGTCACCTAGTGCAG | 3280 fluorescence intensity (a.u.)
16 | TCTCCTGCTCACGTGATTCATACTCTCCCTACTCCCCTCTCGGAGTCACCTAGTGCAG | 3450 fluorescence intensity (a.u.)
17 | CTCGTGCATGCATTTGTGCCCCAGCACTGTCTTCGAAGGACGGAGTCACCTAGTGCAG | 4160 fluorescence intensity (a.u.)
18 | TGCAATAATTTGGACTCATGGAGTTTGAAGATGGGCTCTGCGGAGTCACCTAGTGCAG | 3310 fluorescence intensity (a.u.)
19 | TGGCAGTGTCCTTTGCCAGCTTGCACTGATAGTTGCACTTCGGAGTCACCTAGTGCAG | 3170 fluorescence intensity (a.u.)
20 | ATGATCCTGTAGTGGATCCGTGAGACAGGTGTCAACCTTTCGGAGTCACCTAGTGCAG | 3260 fluorescence intensity (a.u.)
21 | TTGCCATCTCATTTCTTGCATCATCTCCTCCCAATTCCAACGGAGTCACCTAGTGCAG | 3320 fluorescence intensity (a.u.)

Row | Sequence | binding signal
22 | CGTGCATCCGCTTGTGCTGCCACTTCGACAGCCCGCCCGGCGGAGTCACCTAGTGCAG | 3570 fluorescence intensity (a.u.)
23 | CTCTCGCCGCCACCCCGGCCCGCGCGCGCAAGCAACCTTACGGAGTCACCTAGTGCAG | 3890 fluorescence intensity (a.u.)
24 | TGGGACCCACGCTGAGCCAGCTGCCACGTCAGATAAAACCCGGAGTCACCTAGTGCAG | 16500 fluorescence intensity (a.u.)
25 | ATAAAAGATGCTGACATTATATCAGTCGTGCAGCATGGAACGGAGTCACCTAGTGCAG | 3390 fluorescence intensity (a.u.)
26 | AGGCGGCGCGGGCGCTGCTCGTCATCAACGACTACTTCTCCGGAGTCACCTAGTGCAG | 4130 fluorescence intensity (a.u.)
27 | GCTGCCAGCGCCGCCGCCACCTGTGTCGGCACGCGAGCGCCGGAGTCACCTAGTGCAG | 3350 fluorescence intensity (a.u.)
28 | ATCGCCGTCGGCGCCTTCCTCTGGGCCGCCGCCACGCTCCCGGAGTCACCTAGTGCAG | 23400 fluorescence intensity (a.u.)
29 | GCACCGGCGGCGTGTGTGAATGTGTCACGGCTGCGACGCACGGAGTCACCTAGTGCAG | 3660 fluorescence intensity (a.u.)
30 | TTCTTACGGGCAATGGCTAACGATATGCGATGACATGTTGCGGAGTCACCTAGTGCAG | 4020 fluorescence intensity (a.u.)
31 | GAATTCCAATCAGAGACACGTCCATGTTCCATCATCGCCCCGGAGTCACCTAGTGCAG | 5070 fluorescence intensity (a.u.)
32 | AGCCGGATCACCAGGAGGCGGGGACGGGGATGGCCGTCATCGGAGTCACCTAGTGCAG | 3960 fluorescence intensity (a.u.)
33 | GTTATGGGTTTCATTTACCAGCCACCTCTTAGTCCACACCCGGAGTCACCTAGTGCAG | 3910 fluorescence intensity (a.u.)
34 | GTCTCACTGACAGGTGGGACCCACGGCGCAGCGTCACGCGCGGAGTCACCTAGTGCAG | 4470 fluorescence intensity (a.u.)
35 | GAGGCCGGGCACTGCCACGCAGGTCATCCGCTCATCTACCCGGAGTCACCTAGTGCAG | 3910 fluorescence intensity (a.u.)
36 | GTCTGAAGTTCTTTCTCAAATGACAACCTCATTATCATGGCGGAGTCACCTAGTGCAG | 3520 fluorescence intensity (a.u.)
37 | GCGTACGCCGCGGCCGCCAAGTGGTGGCCAGCGGCGCCGCCGGAGTCACCTAGTGCAG | 4580 fluorescence intensity (a.u.)
38 | CGCCTCCACGGCGCCCACGCTCATCGCCACCATCCACGACCGGAGTCACCTAGTGCAG | 3700 fluorescence intensity (a.u.)
39 | TGAGCGCATCCGCCTCCTGGTGACGTTTGCTCTGACGCGTCGGAGTCACCTAGTGCAG | 8530 fluorescence intensity (a.u.)
40 | CGCCGCAAGCACCAAAACCCAGATGACGCTGTGCTCGCCGCGGAGTCACCTAGTGCAG | 3450 fluorescence intensity (a.u.)
41 | CATGGCTAGCTGGTTGCACGCAGTGACGTACTACAATAGACGGAGTCACCTAGTGCAG | 3910 fluorescence intensity (a.u.)
42 | GGCGGGGAGCCGTACACCAGCGTCAGCCCCAATCGCGGCACGGAGTCACCTAGTGCAG | 4470 fluorescence intensity (a.u.)

As entered above.
Value of GGCGGGGAGCCGTACACCAGCGTCAGCCCCAATCGCGGCACGGAGTCACCTAGTGCAG under binding signal: 4470 fluorescence intensity (a.u.)
Value of GCGTACGCCGCGGCCGCCAAGTGGTGGCCAGCGGCGCCGCCGGAGTCACCTAGTGCAG under binding signal: 4580 fluorescence intensity (a.u.)
